Source: patent US12678480B2 (NATIONAL CHENG KUNG UNIVERSITY, priority 2021, dated 2026)

Experiment: general procedure: Fmoc solid-phase peptide synthesis; Fmoc-lys (boc) Wang resin; DIC
Settings: whole synthesis, scale 1 g resin

## MEPGGARLRLQRTEGLGGERERQPCGDGNTETHRAPDLVQWYGRKKRRQRRRK-OH
  final HPLC purity: about 95.46%

Ends that are not written are not given here.
